Measurements reported in PubChem BioAssay AID1259280 (Sanger Institute, 2017)

- Assay: 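Essential kinases and drug-combination synergies in SNU407 cells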 (primary screen)
- System: human SNU407 colorectal cancer cells
- Reagent: siRNA pool against human genes
- Challenge: anchor drugs BYL719 at 1 µM, cetuximab at 5 µg/ml or trametinib at 10 nM, or DMSO vehicle alone; exposure time not given
- Measurement: 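Viability relative to non-targeting control siRNA, expressed as robust z-score, plus a synergy score for each of the three anchor drugs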
- Direction: viability z-score, no drug: higher = more cells survive the knock-down
- Hit rule: 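Essential calls require a no-drug robust viability z-score under -3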
- Calls: active = essential (knock-down alone kills cells); inactive = no change without drug
Here is one part, drawn at random, of 794 deposited reagents. Over the whole deposit, 12 (1.5%) got an active call. 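Calls cover knock-down without drug only; synergy scores stand apart, values above 0.15 being treated as synergy.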 The numbers tell different reagents against one gene apart. Not all columns of the deposit are shown. Reagent sequences are not shown. Not stated in the record: the amount of reagent, the time to read-out.

| gene | reagent | viability z-score, no drug | outcome |
| --- | --- | --- | --- |
| PKIA (cAMP-dependent protein kinase inhibitor alpha) | 1 | 0.901 | inactive |
| HK3 (hexokinase 3) | 1 | 0.901 | inactive |
| CRKL (CRK like proto-oncogene, adaptor protein) | 1 | 0.73 | inactive |
| TTBK2 (tau tubulin kinase 2) | 1 | -0.166 | inactive |
| TWF1 (twinfilin actin binding protein 1) | 1 | 0.901 | inactive |
| PTEN (phosphatase and tensin homolog) | 1 | 0.811 | inactive |
| RPS6KL1 (ribosomal protein S6 kinase like 1) | 1 | 0.492 | inactive |
| AK3 (adenylate kinase 3) | 1 | 0.65 | inactive |
| STAG2 (STAG2 cohesin complex component) | 1 | 0.465 | inactive |
| ULK1 (unc-51 like autophagy activating kinase 1) | 1 | 0.0854 | inactive |
| LCK (LCK proto-oncogene, Src family tyrosine kinase) | 1 | -1.28 | inactive |
| PDK2 (pyruvate dehydrogenase kinase 2) | 1 | 0.746 | inactive |
| RIPK2 (receptor interacting serine/threonine kinase 2) | 1 | 0.901 | inactive |
| DYRK4 (dual specificity tyrosine phosphorylation regulated kinase 4) | 1 | -0.555 | inactive |
| MAP3K5 (mitogen-activated protein kinase kinase kinase 5) | 1 | 0.821 | inactive |
| GSK3A (glycogen synthase kinase 3 alpha) | 1 | 0.458 | inactive |
| CTCF (CCCTC-binding factor) | 1 | -3.25 | active |
| STK35 (serine/threonine kinase 35) | 1 | -0.0328 | inactive |
| TBX3 (T-box transcription factor 3) | 1 | 0.901 | inactive |
| PRKACA (protein kinase cAMP-activated catalytic subunit alpha) | 1 | 0.848 | inactive |
| PRKD3 (protein kinase D3) | 1 | 0.574 | inactive |
| CDK13 (cyclin dependent kinase 13) | 1 | 0.901 | inactive |
| PKLR (pyruvate kinase L/R) | 1 | 0.268 | inactive |
| MAP3K1 (mitogen-activated protein kinase kinase kinase 1) | 1 | 0.901 | inactive |
| PRKAR1B (protein kinase cAMP-dependent type I regulatory subunit beta) | 1 | 0.428 | inactive |
| EPHB2 (EPH receptor B2) | 1 | -0.103 | inactive |
| NEK1 (NIMA related kinase 1) | 1 | -0.26 | inactive |
| KCNH8 (potassium voltage-gated channel subfamily H member 8) | 1 | -0.736 | inactive |
| ETNK2 (ethanolamine kinase 2) | 1 | -1.36 | inactive |
| KSR2 (kinase suppressor of ras 2) | 1 | 0.901 | inactive |
| MAPK3 (mitogen-activated protein kinase 3) | 1 | 0.406 | inactive |
| ILK (integrin linked kinase) | 1 | 0.901 | inactive |
| ILK (integrin linked kinase) | 2 | -0.137 | inactive |
| PIK3C2G | 1 | -1.39 | inactive |
| PAK3 (p21 (RAC1) activated kinase 3) | 1 | -1.17 | inactive |
| CREBBP (CREB binding lysine acetyltransferase) | 1 | 0.901 | inactive |
| MYLK4 (myosin light chain kinase family member 4) | 1 | -1.21 | inactive |
| AK2 (adenylate kinase 2) | 1 | 0.901 | inactive |
| COQ8B (coenzyme Q8B) | 1 | 0.747 | inactive |
| MAP2K2 (mitogen-activated protein kinase kinase 2) | 1 | 0.0496 | inactive |
| EPHB1 (EPH receptor B1) | 1 | -0.945 | inactive |
| DGKD (diacylglycerol kinase delta) | 1 | -0.23 | inactive |
| PDPK1 (3-phosphoinositide dependent protein kinase 1) | 1 | 0.775 | inactive |
| TP53BP1 (tumor protein p53 binding protein 1) | 1 | 0.265 | inactive |
| ROS1 (ROS proto-oncogene 1, receptor tyrosine kinase) | 1 | -0.237 | inactive |
| BUB1B (BUB1 mitotic checkpoint serine/threonine kinase B) | 1 | -0.462 | inactive |
| MAP3K9 (mitogen-activated protein kinase kinase kinase 9) | 1 | -0.555 | inactive |
| MAP3K15 (mitogen-activated protein kinase kinase kinase 15) | 1 | 0.901 | inactive |
| CSNK1G1 (casein kinase 1 gamma 1) | 1 | 0.901 | inactive |
| FN3K (fructosamine 3 kinase) | 1 | 0.901 | inactive |
